Only a part is listed here, and it is no random draw.
Molecular target: furin, P09958
Assay: furin cleavage Z-score vs untreated control; higher = more cleavage, active = 3.5 or more, inactive = 1 or less, 8 variable residues between constant flanks
Method: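 Multiplexed peptide-cDNA fusion cleavage assay. 8-mer variable peptides flanked by constant Cys-Ala (N-term) and Ala-Gly-Asn-Ala-Ser-Ala-Ser-Ala (C-term) and conjugated to a cDNA oligonucleotide were bead-immobilised via the N-terminus. They were treated with purified furin at a 1:10 enzyme:substrate ratio in 50 mM HEPES pH 7.5, 1 mM CaCl2, 100 mM NaCl for 7.5, 15 or 30 min. Released cDNA was counted by next-generation sequencing, and log counts versus no-furin controls were lowess-adjusted and converted to robust Z-scores.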

Protein sequences, listed by entry. Tags and fused reporters are not part of them.
furin, P09958, UniProt P09958, whole entry: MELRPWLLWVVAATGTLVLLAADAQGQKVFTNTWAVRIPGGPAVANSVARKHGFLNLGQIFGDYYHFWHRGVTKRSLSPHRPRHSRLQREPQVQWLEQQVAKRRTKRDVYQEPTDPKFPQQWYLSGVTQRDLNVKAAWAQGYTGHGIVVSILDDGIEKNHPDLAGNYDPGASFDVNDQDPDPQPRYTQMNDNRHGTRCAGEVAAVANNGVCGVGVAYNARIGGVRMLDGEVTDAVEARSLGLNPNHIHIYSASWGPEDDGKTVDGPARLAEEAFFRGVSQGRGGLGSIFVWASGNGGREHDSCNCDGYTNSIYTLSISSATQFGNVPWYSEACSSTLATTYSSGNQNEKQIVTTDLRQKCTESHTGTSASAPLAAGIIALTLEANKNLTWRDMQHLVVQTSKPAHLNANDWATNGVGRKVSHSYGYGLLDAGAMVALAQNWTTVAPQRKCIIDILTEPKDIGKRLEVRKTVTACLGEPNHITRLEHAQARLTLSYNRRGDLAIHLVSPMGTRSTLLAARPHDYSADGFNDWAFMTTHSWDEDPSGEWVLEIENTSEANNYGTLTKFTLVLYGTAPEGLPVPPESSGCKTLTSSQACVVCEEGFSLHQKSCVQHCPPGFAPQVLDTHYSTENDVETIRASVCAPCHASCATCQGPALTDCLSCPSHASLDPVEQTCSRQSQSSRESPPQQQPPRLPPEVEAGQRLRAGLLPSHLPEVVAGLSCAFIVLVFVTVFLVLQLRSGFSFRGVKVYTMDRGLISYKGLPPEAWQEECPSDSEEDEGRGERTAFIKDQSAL

Sequence | furin cleavage Z-score (7.5 min) | furin cleavage Z-score (15 min) | furin cleavage Z-score (30 min)
CAMEECSQFLAGNASASA [HC1747] | 2.24 | 1.37 | 1.18
CACRRRRRRKAGNASASA [FS-583] | active: 7.53 | active: 8.14 | active: 6.13
CAPKGRGKRRAGNASASA [FS-1241] | 3.48 | 3.42 | active: 4.16
CARGGRWRRSAGNASASA [FS-1061] | 3.18 | 1.83 | 1.47
CAAHRRNKKDAGNASASA [FS-640] | 2.22 | 1.01 | 2.02
CARQPRLVGAAGNASASA [FS-2171] | inactive: -0.691 | inactive: -0.656 | inactive: -0.39
CARKSRGTSTAGNASASA [FS-2218] | 1.5 | 2.63 | 2.68
CATTPCAGSWAGNASASA [HC61] | inactive: -1.21 | inactive: 0.988 | 1.04
CAFHIRRKRYAGNASASA [FS-651] | active: 11.7 | active: 12.5 | active: 10.9
CAFHIRRKRYAGNASASA [FU9] | active: 11 | active: 12.5 | active: 11.3
CARRKRLDWCAGNASASA [FS-2229] | 2.36 | 2.5 | 3.01
CAYNCRCKRGAGNASASA [FS-901] | 2.32 | 2.87 | 3.05
CATMSRLARTAGNASASA [FS-1424] | 2.67 | 3.44 | 2.64
CARGRRSEDQAGNASASA [FS-2419] | 3.38 | 2.69 | 1.78
CAHRCRHKRWAGNASASA [FS-133] | active: 5.93 | active: 10.1 | active: 8.03
CAKREVPCHRAGNASASA [HC2434] | 2.19 | 1.6 | 3.27
CAVSKRHVRIAGNASASA [FS-2114] | inactive: -0.647 | 1.47 | 2.71
CAMEECGQHLAGNASASA [HC22] | inactive: 0.622 | inactive: 0.186 | 1.5
CARLGVRATRAGNASASA [HC182] | 2.63 | 1.61 | 1.26

Sequence | furin cleavage Z-score (7.5 min) | furin cleavage Z-score (15 min) | furin cleavage Z-score (30 min)
CARLPRSNSLAGNASASA [FS-2710] | 1.22 | 1.87 | 2.28
CAHSSRLKRLAGNASASA [FS-1011] | active: 6.44 | active: 7.96 | active: 7.66
CARARRGVEVAGNASASA [FS-2647] | active: 4.52 | active: 5.87 | active: 6.09
CATGARGLRSAGNASASA [FS-726] | 1.01 | 1.84 | 2.33
CAPKGRPKRAAGNASASA [FS-1047] | active: 11.3 | active: 13.3 | active: 9.54
CALMRRRRRKAGNASASA [FS-1599] | active: 8.11 | active: 10.6 | active: 8.59
CARFKRKDRMAGNASASA [FS-2553] | active: 4.28 | active: 3.52 | active: 4.13
CARHPRRSRPAGNASASA [FS-2941] | 1.01 | 1.36 | 1.29
CATSSRNARNAGNASASA [FS-571] | 3.05 | active: 4.2 | active: 5.2
CAMEACSQHLAGNASASA [HC1703] | 1.85 | 1.21 | 1.86
CADEECSQHLAGNASASA [HC1671] | inactive: 0.117 | inactive: 0.56 | inactive: -0.0902
CARPYRAIDFAGNASASA [FS-2061] | 1.01 | 1.47 | 2.09
CAMEECRQHLAGNASASA [HC30] | 1.36 | 2.65 | 2.2
CAGKGRHHRGAGNASASA [FS-999] | 3.13 | 1.4 | 3.02
CADVRCHARKAGNASASA [HC1424] | 1.71 | 1.47 | 1.56
CARVKKEWEEAGNASASA [FS-1871] | inactive: -0.778 | inactive: -0.527 | inactive: -1.03
CALAARRRRSAGNASASA [FS-264] | active: 10.9 | active: 11 | active: 8.11
CAEEERRRREAGNASASA [FS-155] | 1.73 | 1.87 | 2.22
CARFRRKRRHAGNASASA [FS-854] | active: 9.74 | active: 9.95 | active: 7.32

Exported as comma-separated lines: entries from further up
Sequence,furin cleavage Z-score (7.5 min),furin cleavage Z-score (15 min),furin cleavage Z-score (30 min)
CARLPRSNSLAGNASASA [FS-2710],1.22,1.87,2.28
CARFKRKDRMAGNASASA [FS-2553],active: 4.28,active: 3.52,active: 4.13
CARHPRRSRPAGNASASA [FS-2941],1.01,1.36,1.29
CATSSRNARNAGNASASA [FS-571],3.05,active: 4.2,active: 5.2
CAMEECRQHLAGNASASA [HC30],1.36,2.65,2.2
CADVRCHARKAGNASASA [HC1424],1.71,1.47,1.56
CARFRRKRRHAGNASASA [FS-854],active: 9.74,active: 9.95,active: 7.32
